This note sets out measurements from the supplement of paper PMC12067093, “Discovery and optimisation of a covalent ligand for TRIM25 and its application to targeted protein ubiquitination” (Chemical Science, 2025).

Protein sequences, listed by entry. Tags and fused reporters are not part of them. Lines headed by an entry give the natural chain unless they say otherwise; changes in a name come on top.
UniProt Q8IVQ6: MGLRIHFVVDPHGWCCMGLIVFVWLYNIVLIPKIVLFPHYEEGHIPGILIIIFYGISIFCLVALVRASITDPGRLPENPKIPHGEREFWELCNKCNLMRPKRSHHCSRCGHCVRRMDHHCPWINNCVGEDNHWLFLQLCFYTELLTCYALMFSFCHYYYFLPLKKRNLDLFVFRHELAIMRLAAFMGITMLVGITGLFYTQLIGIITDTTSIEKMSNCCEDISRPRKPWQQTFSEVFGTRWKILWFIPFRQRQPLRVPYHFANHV
UniProt Q9H0D6: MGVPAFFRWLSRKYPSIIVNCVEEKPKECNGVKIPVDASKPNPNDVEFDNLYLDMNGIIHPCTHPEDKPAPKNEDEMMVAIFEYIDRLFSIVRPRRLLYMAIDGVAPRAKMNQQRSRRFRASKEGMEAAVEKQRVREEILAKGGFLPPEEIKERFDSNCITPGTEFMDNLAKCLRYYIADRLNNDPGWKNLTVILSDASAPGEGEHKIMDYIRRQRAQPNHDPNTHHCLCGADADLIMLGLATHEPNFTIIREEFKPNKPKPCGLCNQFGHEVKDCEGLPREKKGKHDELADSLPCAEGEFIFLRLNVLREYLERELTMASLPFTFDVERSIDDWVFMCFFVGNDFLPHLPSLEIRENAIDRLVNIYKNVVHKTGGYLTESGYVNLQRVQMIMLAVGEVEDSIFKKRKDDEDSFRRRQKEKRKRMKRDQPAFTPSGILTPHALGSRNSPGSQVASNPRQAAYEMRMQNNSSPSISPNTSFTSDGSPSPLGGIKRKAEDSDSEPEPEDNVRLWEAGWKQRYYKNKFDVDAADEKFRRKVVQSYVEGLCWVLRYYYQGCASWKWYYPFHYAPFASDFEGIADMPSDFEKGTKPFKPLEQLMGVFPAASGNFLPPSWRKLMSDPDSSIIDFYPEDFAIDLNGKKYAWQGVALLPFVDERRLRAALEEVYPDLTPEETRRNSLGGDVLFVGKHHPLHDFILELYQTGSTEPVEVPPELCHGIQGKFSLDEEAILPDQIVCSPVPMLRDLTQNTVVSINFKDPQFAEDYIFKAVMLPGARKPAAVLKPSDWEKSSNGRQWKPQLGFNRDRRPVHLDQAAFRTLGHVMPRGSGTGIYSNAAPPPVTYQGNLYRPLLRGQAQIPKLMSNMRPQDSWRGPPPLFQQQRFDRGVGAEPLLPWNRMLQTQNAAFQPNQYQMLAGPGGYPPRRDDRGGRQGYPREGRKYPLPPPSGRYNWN
UniProt O75152: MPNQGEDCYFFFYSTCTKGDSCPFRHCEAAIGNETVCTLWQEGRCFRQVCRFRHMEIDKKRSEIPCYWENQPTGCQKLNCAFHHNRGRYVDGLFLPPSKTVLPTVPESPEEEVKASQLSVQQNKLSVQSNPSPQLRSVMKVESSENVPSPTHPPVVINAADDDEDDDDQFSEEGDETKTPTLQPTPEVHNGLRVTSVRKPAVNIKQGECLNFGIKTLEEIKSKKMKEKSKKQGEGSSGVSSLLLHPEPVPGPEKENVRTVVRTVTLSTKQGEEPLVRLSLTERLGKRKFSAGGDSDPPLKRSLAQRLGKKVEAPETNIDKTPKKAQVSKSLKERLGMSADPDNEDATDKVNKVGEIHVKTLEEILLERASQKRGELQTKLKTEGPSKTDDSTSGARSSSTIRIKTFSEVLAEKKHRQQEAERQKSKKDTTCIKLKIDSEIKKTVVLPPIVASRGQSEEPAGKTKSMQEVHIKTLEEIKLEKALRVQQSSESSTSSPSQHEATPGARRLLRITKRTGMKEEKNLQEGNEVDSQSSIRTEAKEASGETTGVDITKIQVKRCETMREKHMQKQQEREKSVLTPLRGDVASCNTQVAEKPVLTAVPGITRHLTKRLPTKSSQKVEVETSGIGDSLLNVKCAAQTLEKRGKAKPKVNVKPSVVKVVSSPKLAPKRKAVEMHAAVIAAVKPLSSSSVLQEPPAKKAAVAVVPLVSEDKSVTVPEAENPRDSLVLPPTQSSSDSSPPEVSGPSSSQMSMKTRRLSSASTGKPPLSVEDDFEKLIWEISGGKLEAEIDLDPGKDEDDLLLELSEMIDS
UniProt Q5D1E8: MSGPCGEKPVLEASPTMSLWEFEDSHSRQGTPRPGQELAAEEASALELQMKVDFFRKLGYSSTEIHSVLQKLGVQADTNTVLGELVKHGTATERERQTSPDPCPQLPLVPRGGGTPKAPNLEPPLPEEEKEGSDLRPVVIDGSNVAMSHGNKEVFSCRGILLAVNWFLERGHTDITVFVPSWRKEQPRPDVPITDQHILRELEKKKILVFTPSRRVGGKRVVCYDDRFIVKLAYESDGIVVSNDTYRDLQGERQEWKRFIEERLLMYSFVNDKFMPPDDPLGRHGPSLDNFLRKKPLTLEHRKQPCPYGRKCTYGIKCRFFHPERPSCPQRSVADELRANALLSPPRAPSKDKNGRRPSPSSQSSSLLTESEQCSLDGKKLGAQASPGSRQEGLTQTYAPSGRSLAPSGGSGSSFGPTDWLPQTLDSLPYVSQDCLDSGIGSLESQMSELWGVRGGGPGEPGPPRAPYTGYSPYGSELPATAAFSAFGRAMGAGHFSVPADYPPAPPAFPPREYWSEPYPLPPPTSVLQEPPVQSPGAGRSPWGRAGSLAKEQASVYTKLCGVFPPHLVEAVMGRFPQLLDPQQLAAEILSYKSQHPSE
UniProt Q8NBI6: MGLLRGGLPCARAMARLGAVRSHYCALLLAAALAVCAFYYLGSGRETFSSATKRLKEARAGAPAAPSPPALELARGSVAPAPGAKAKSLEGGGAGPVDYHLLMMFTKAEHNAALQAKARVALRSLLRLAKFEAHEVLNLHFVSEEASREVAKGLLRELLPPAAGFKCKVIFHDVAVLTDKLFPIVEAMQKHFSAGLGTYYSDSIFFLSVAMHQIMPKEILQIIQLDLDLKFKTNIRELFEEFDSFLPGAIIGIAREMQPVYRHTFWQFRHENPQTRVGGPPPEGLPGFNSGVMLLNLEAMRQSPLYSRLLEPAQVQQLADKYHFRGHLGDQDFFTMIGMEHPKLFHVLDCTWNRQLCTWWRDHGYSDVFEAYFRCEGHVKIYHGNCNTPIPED
UniProt Q8TBF4: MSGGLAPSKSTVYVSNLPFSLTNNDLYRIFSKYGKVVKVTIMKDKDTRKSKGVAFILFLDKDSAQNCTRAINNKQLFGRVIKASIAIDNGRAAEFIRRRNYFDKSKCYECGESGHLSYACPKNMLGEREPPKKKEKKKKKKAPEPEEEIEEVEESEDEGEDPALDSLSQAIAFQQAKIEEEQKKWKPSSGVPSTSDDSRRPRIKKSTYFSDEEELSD
UniProt Q9NUD5: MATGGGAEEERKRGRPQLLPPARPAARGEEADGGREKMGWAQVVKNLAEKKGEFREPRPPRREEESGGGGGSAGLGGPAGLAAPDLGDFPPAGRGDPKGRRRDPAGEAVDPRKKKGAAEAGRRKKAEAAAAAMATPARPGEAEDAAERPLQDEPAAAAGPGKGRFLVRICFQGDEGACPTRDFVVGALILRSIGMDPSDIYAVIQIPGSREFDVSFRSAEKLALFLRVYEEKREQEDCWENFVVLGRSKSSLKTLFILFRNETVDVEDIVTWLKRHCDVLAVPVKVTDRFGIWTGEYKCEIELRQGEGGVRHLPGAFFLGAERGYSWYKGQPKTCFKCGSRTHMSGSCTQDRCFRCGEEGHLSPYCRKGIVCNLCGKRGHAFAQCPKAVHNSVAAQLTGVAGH
UniProt Q5T200: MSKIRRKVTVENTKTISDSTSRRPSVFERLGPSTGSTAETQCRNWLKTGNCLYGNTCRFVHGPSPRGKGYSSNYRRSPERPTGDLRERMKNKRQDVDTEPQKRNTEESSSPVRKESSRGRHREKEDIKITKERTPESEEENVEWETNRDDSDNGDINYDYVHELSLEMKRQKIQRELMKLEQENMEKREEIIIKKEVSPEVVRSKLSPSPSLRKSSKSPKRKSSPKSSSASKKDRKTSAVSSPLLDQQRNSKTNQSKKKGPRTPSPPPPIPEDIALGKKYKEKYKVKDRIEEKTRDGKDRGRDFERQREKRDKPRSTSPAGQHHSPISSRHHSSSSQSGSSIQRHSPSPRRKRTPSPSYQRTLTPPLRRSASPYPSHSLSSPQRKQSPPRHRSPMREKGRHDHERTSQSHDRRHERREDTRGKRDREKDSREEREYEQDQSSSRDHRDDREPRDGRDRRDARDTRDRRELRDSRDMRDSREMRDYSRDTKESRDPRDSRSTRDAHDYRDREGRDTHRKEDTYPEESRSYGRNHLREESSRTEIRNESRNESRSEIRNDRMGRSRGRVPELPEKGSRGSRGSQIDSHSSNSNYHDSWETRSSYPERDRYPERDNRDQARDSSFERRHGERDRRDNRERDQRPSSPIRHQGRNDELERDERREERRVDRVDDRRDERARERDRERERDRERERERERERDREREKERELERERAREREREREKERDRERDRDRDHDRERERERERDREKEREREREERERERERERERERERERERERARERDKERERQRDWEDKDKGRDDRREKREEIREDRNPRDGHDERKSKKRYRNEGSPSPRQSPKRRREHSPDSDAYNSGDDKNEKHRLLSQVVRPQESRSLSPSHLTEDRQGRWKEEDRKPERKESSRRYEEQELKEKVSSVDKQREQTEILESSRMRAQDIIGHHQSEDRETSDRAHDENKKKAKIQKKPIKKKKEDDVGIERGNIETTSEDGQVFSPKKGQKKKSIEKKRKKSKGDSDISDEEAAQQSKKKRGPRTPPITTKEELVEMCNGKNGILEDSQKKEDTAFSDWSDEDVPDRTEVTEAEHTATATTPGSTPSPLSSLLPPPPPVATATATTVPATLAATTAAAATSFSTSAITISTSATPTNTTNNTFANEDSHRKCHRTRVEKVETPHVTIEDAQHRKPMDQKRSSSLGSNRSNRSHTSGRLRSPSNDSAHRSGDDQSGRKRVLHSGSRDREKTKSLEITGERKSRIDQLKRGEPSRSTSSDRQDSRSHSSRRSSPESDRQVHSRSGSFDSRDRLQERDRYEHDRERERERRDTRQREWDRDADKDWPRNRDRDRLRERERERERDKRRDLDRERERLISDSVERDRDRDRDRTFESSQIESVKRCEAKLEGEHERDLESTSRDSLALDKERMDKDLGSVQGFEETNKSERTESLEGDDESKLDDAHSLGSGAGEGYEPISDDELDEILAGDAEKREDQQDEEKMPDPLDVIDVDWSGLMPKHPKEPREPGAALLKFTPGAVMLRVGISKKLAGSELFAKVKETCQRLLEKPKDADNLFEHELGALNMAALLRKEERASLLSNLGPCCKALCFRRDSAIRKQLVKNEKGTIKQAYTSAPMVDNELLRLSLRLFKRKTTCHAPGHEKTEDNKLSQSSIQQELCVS
UniProt O60315: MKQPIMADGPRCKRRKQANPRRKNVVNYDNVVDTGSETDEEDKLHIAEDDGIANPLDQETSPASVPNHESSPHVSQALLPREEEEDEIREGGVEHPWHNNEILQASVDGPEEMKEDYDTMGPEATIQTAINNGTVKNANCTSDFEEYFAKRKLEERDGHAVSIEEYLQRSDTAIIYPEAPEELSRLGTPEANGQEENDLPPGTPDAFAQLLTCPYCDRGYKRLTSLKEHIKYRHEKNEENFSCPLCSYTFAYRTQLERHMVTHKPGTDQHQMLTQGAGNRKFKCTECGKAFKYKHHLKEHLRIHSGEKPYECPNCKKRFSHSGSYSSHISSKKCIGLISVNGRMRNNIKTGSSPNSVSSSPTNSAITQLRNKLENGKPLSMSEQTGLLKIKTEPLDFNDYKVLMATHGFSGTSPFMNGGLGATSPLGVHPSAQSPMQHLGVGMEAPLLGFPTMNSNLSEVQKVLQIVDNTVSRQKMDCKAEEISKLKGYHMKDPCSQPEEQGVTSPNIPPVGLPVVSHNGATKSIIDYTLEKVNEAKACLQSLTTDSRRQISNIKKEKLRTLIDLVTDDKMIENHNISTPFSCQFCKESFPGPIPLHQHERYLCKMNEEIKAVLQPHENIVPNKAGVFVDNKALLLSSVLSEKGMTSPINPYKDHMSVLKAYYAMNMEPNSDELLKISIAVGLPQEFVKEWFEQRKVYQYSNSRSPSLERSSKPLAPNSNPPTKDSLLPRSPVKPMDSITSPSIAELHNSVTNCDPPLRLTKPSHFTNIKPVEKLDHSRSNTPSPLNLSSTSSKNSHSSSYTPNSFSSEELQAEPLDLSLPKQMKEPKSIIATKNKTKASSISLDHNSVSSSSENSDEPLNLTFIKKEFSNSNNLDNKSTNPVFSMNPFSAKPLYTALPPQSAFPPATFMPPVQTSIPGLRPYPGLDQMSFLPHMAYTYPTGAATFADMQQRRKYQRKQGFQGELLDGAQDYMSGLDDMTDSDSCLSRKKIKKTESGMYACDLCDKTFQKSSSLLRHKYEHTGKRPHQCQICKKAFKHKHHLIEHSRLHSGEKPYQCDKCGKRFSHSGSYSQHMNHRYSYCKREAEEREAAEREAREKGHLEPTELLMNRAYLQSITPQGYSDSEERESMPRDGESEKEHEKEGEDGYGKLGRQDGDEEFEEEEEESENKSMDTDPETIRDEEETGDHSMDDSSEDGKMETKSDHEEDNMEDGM

Compound in this experiment: CC1Cc2ccccc2N1C(=O)C1CCCN(C1)C(=O)CCl (mixture of isomers) [TRIM25 ligand 11 (diastereomer mixture)]
The experiment in a line: probe-labelled cysteine peptide fold change vs DMSO (competition) (log2 fold change); higher = less target engagement (more negative = stronger competition). The settings on record: THP-1, incubation time: 4 h.

The list shows a part of the results.
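Also: competitive chemoproteomic profiling in live THP-1 cells with an iodoacetamide desthiobiotin (IA-DTB) probe, comparing probe-labelled peptide intensities in compound-treated cells against DMSO-treated controls.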

In the case of “ZDHHC21_Q8IVQ6_112_CGHCVR (UniProt Q8IVQ6)”, the “probe-labelled cysteine peptide fold change” value (10 µM) was -0.0132 and the “probe-labelled cysteine peptide fold change” value (50 µM) stood at 0.303.
“ZBTB33_Q86T24_32_GHGLFCDVTVIVEDRK (UniProt Q86T24)”: the “probe-labelled cysteine peptide fold change” value is -0.00223 (10 µM) and 0.115 (50 µM).
Turning to “YBEY_P58557_121_ENEDYNDVLTVTATHGLCHLLGFTHGTEAEWQQMFQK (UniProt P58557)”, the “probe-labelled cysteine peptide fold change” value is, setting by setting: (10 µM) 0.108; (50 µM) 0.109.
For “XRN2_Q9H0D6_296_KGKHDELADSLPCAEGEFIFLR (UniProt Q9H0D6)”, the “probe-labelled cysteine peptide fold change” value reads like this: (10 µM) 0.0231; (50 µM) 0.0473.
With “ZC3H11A_O75152_80_LNCAFHHNR (UniProt O75152)”, the “probe-labelled cysteine peptide fold change” value by setting is: (10 µM) 0.00255; (50 µM) 0.082.
For “ZDHHC21_Q8IVQ6_106_SHHCSR (UniProt Q8IVQ6)” the same measures were 0.476 and 0.232.
For the target “ZC3H12A_Q5D1E8_374_RPSPSSQSSSLLTESEQCSLDGK (UniProt Q5D1E8)”, the “probe-labelled cysteine peptide fold change” value (10 µM) was -0.0724 and the “probe-labelled cysteine peptide fold change” value (50 µM) is -0.297.
“YBEY_P58557_41_FDLGIICVDNK (UniProt P58557)”: the “probe-labelled cysteine peptide fold change” value is, setting by setting: (10 µM) -0.23; (50 µM) -0.0948.
Taken in the same sequence, the figures for “ZBED4_O75132_1124_FLGCPPSIVPSEK (UniProt O75132)” were 0.00864 and 0.0176.
As to “XXYLT1_Q8NBI6_350_LFHVLDCTWNR (UniProt Q8NBI6)”, the “probe-labelled cysteine peptide fold change” value (10 µM) stood at 0.0272 and the “probe-labelled cysteine peptide fold change” value (50 µM) came out at 0.0636.
As for “ZCRB1_Q8TBF4_67_DSAQNCTR (UniProt Q8TBF4)”, the “probe-labelled cysteine peptide fold change” value was found to be 0.00857 (10 µM) and 0.0314 (50 µM).
For the target “ZCCHC3_Q9NUD5_356_CGEEGHLSPYCR (UniProt Q9NUD5)”, the “probe-labelled cysteine peptide fold change” value (10 µM) came to 0.259 and the “probe-labelled cysteine peptide fold change” value (50 µM) was 0.0669.
As to “ZC3H13_Q5T200_1592_ASLLSNLGPCCK (UniProt Q5T200)”, the “probe-labelled cysteine peptide fold change” value (10 µM) was determined as 0.0171 and the “probe-labelled cysteine peptide fold change” value (50 µM) was -0.128.
Take “ZEB2_O60315_583_MIENHNISTPFSCQFCK (UniProt O60315)”: the “probe-labelled cysteine peptide fold change” value by setting is: (10 µM) -0.183; (50 µM) -0.268.
